From patent publication US20250134902A1, “DRUG REPURPOSING FOR DELAYED TREATMENT OF ISCHEMIC STROKE” (UNIVESRITY OF NORTH TEXAS HEALTH SCIENCE CENTER, priority 2022, published 2025)
At least one compound was matched to its structure with a doubt left.

Sequences of proteins named here, by UniProt entry; tags and fusion partners are left off. A change or cut given only in a name is not applied to a line headed by its entry.
UniProt Q5BJF2, whole entry: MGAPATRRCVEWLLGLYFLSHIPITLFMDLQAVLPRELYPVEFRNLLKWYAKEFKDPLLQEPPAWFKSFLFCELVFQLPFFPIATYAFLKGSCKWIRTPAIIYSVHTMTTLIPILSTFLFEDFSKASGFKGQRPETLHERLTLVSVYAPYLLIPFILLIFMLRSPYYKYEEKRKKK

How the values were obtained:
[1] = target: T1, human Sigma-2 receptor (S2R) (Homo sapiens, UniProt Q5BJF2); assay: Radioligand competition binding at Sigma-2 receptor ([3H]-DTG, untransfected MCF-7); conditions: displacement of 2.5 nM [3H]DTG, untransfected MCF-7 cells; average of 2-3 experiments ± SEM; read-out: S2R affinity (Ki)
T1 construct: these cells express the endogenous S2R; endogenous in cells; host or cells: untransfected human MCF-7 cells
Procedure: Ki values were calculated from IC50 values using the Cheng-Prusoff equation.

[2] = Pharmacokinetics of per oral oxeladin in plasma and brain; format: in vivo; conditions: rat, 135 mg/kg p.o.; brain penetrant if >0.04
Procedure: Evaluating the pharmacokinetics of Sigma receptor agonists. […] Whole blood was harvested into EDTA coated tubes at 30, 60, 120, 240, 720, and 1440 minutes from rats following euthanasia by CO2 inhalation. Plasma was processed from whole blood by centrifugation for 10 min at 10,000 rpm and frozen at −80° C. until assayed. The brains were collected, weighed, snap frozen in liquid nitrogen, and stored at −80° C. until processed.
For standards, 98 μl blank plasma was added to an Eppendorf tube spiked with 2 μl of […] (IS). For QCs, add 98.8 μl blank plasma was added to an Eppendorf tube spiked with 1.2 μl of IS. 100 μl plasma was mixed with 200 μl of acetonitrile containing 0.15% formic acid and 37.5 ng/ml IS (IS final conc.=25 ng/ml), and 100 microliters brain homogenized solution was mixed with 200 microliters of acetonitrile containing 0.15% formic acid and 60 ng/ml IS (IS final conc.=40 ng/ml). The samples were vortexed 15 sec, incubated at room temp for 10 min and spun 2×13,200 rpm in a standard microcentrifuge. The supernatant was then analyzed by LC/MS/MS (QTRAP® 3200) according to the following parameters:
Ion Source/Gas Parameters: CUR=25, CAD=medium, IS=5000, TEM=700, GS1=70, GS2=70. […]

| Compound | Ki [1] [nM] | Blood-brain barrier Penetration (Cb:Cp) [2] |
| --- | --- | --- |
| CCC(C(=O)OCCOCCN(CC)CC)c1ccccc1 (centres unmarked) [Butamirate] | 214 ± 4 | – |
| CCN(CC)CCOCCOC(=O)C(CC)(CC)c1ccccc1 [Oxeladin] | – | 3.5:1 |
